Test results published in patent publication US20080279874A1.
No constants are given. Whether binding was seen depends on the method and setting. Binding seen in cells or lysates may run through a third protein. Some binding calls cover weakened binding; strength is not graded here. Tags and fused reporters may be left off the sequences shown.

Protein sequences, listed by entry. Tags and fused reporters are not part of them. Lines headed by an entry give the natural chain unless they say otherwise; changes in a name come on top.
UniProt P53350: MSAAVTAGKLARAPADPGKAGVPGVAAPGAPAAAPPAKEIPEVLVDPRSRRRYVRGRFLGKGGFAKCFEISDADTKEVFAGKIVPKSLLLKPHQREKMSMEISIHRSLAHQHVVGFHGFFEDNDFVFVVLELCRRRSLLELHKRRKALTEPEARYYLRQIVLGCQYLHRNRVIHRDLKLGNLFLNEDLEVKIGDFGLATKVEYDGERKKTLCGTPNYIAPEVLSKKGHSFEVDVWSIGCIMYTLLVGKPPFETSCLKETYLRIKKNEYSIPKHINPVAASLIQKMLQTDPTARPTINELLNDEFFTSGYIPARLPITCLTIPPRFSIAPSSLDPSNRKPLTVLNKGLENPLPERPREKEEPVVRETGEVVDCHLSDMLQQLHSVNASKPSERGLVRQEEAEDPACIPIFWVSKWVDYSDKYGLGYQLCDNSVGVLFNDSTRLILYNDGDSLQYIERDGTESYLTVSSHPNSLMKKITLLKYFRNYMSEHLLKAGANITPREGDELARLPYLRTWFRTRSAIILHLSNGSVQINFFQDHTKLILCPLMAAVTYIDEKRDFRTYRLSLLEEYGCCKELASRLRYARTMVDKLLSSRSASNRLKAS

Target: T1, V5-tagged CENPB expressed in H1299 cells (human) (UniProt P07199)
T1 sequence: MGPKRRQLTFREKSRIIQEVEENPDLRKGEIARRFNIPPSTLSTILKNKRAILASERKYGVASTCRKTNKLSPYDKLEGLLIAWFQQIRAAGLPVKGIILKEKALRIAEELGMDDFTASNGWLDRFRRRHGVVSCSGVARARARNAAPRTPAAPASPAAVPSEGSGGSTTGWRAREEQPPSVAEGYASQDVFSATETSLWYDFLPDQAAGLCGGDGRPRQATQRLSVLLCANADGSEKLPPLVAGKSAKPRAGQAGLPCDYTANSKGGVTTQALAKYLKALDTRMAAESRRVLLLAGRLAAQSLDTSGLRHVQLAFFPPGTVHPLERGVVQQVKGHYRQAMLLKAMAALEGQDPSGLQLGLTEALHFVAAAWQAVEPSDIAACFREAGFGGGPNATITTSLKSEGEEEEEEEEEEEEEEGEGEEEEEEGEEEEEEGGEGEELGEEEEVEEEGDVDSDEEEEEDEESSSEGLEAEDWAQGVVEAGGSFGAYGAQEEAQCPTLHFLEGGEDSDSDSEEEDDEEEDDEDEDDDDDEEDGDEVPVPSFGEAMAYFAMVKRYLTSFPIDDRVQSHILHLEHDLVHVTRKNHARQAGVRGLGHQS
Assay: co-immunoprecipitation with anti-Plk1 antibodies from transfected H1299 cells, immunoblot for CENPB

- binding: binds
Substance: His-tagged Plk1 expressed in H1299 cells (from UniProt P53350 1-603) (enzyme)
